Results on 54 sequences are retold here after publication PMC7819943, “Rice protein-binding microarrays: a tool to detect cis-acting elements near promoter regions in rice”.

This is one part of the list.

For this assay, the target named is T1, OsSMF1 (Oryza sativa, UniProt Q6ZLB0 1-436).
T1 sequence: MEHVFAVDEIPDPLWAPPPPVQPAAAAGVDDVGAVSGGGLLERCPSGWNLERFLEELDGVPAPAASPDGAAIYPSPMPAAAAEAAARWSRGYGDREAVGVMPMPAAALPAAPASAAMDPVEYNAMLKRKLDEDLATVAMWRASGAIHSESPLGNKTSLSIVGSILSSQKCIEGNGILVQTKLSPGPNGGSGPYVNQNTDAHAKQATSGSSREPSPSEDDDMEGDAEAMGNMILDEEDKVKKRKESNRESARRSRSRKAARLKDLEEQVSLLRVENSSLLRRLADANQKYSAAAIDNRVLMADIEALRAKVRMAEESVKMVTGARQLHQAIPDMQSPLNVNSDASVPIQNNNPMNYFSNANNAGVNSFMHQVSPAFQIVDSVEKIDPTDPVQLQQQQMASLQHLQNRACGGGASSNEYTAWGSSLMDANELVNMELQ
As to the kind of experiment: protein-binding microarray (RPBM); PBS, 2% BSA, 51.3 ng/ul salmon testes DNA, 50 uM zinc acetate, 200 nM TF, 25 C, 1 h; high values mean tight binding. Particulars: protein: recombinant; tags: N-terminal polyhistidine and DsRed monomer fusion (pET32a); chain copies: 2; label: CyDye5-dUTP incorporated in the synthesized complementary strand; 3' TTTTT single-stranded linker to array surface; dsDNA, one strand shown. The procedure, abridged: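 Transcription factors were each fused at the N-terminus to a polyhistidine tag plus DsRed and expressed in E. coli BL21-CodonPlus before Ni–NTA purification. Binding to a double-stranded custom Agilent array was carried out with 200 nM protein at 25 °C for 1 h in PBS, 2% BSA, salmon testes DNA and 50 µM zinc acetate. The binding signal is per-feature fluorescence intensity, in arbitrary units, on an Axon 4000B scanner.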
“TCACCCCTGAGAAAGACACGTCTTTCTGGTTTAATCCATTCGGAGTCACCTAGTGCAG”: the binding signal was 3620 fluorescence intensity (a.u.).

As to “ACGGCAAAGCCCATTAGTCGGACTGGCCTCCAGGGGAGGGCGGAGTCACCTAGTGCAG”, the binding signal is 3670 fluorescence intensity (a.u.).

For the sequence “GAGGGAGTACTGCACTATGACTAATATGTTGATCGGTTCTCGGAGTCACCTAGTGCAG”, the binding signal is 3270 fluorescence intensity (a.u.). Then “GGAGACCGCGGAGTGATGACTGGTGAGGCGGCGATGTCCACGGAGTCACCTAGTGCAG”, with 3310 fluorescence intensity (a.u.).

With “CTCTCCGAGTCACTCTCCACCGATCCCAGGGTTCTTCTACCGGAGTCACCTAGTGCAG”, the binding signal was 3950 fluorescence intensity (a.u.). To “GGAAGGGAGAGAAGAGGGGTGCTGACGTGGACACCCTGACCGGAGTCACCTAGTGCAG” belongs 23400 fluorescence intensity (a.u.); to “AACGGCCAAGTCCCACCTCAGCGCCAGGTGGGCTGGCGCTCGGAGTCACCTAGTGCAG”, 4320 fluorescence intensity (a.u.). Then “CTGCAATTTTGTAAGAAATGAGTTGTAATGTTGTTTCCTGCGGAGTCACCTAGTGCAG”, with 4120 fluorescence intensity (a.u.). On to “CAGTTGATGATACACGTGTACGCACTAGTGTGACTTGCAACGGAGTCACCTAGTGCAG”, for which the binding signal is 8950 fluorescence intensity (a.u.). To “AGAAGTACGGAGTAGAAATACTACCTGTCACTGCTAAGTGCGGAGTCACCTAGTGCAG” belongs 3390 fluorescence intensity (a.u.); to “AATCACCAAAACTTTCCTGTCGGTCATCAATCTCATCAGCCGGAGTCACCTAGTGCAG”, 3440 fluorescence intensity (a.u.); to “TGTTATTTTACTCATGCTTGCTGATGTAACCTCAGTTATCCGGAGTCACCTAGTGCAG”, 4660 fluorescence intensity (a.u.). Then “TACTCACTCCTGCACGTCGGGTAAATTACAGCTAAATATACGGAGTCACCTAGTGCAG”, with 13100 fluorescence intensity (a.u.); and “TTTGAACATTTCGACGTGACTCGATATCAATTTCCGAGAGCGGAGTCACCTAGTGCAG”, with 3400 fluorescence intensity (a.u.); and “TAATTTGATGGATTATTGTCACTGACATCATCACCAGCACCGGAGTCACCTAGTGCAG”, with 5860 fluorescence intensity (a.u.). As to “CTTCTCCAAGGGACCAGGAAACTGACGCTACAGCTTTGCCCGGAGTCACCTAGTGCAG”, the binding signal is 3900 fluorescence intensity (a.u.).

For the sequence “TTTTGGGCTTGCTCGTATCCTTGCCAAGTCTGGTGAGTCGCGGAGTCACCTAGTGCAG”, the binding signal was 3950 fluorescence intensity (a.u.). Then “CCCATAACTGAATTGTTAATTTTGTCACGCGAGCAACGCACGGAGTCACCTAGTGCAG”, with 19300 fluorescence intensity (a.u.); and “GTGATGACGTGGCACGCTGACATGTGGGGTCCCACGTGCCCGGAGTCACCTAGTGCAG”, with 19000 fluorescence intensity (a.u.). To “CCTTGCAATCGATGTAATGCGGTGACGTGGCACACAGTAGCGGAGTCACCTAGTGCAG” belongs 25500 fluorescence intensity (a.u.); to “CGGATTTAGTATGTTTTACGTGGCAAAATGGTCTCCTAGACGGAGTCACCTAGTGCAG”, 5470 fluorescence intensity (a.u.).

For the sequence “GCGCCTTGCCTGGCGAGGTTGCGGTGTCCGACAGCGAGTCCGGAGTCACCTAGTGCAG”, the binding signal is 3890 fluorescence intensity (a.u.). Then “CCTCAACCGTGACTCAGTTATTCAGTTCGACACCCAGCCGCGGAGTCACCTAGTGCAG”, with 7330 fluorescence intensity (a.u.); and “CCTCTCGTCGCCGACGTGGACTCACCCGACGCCGCGAGCCCGGAGTCACCTAGTGCAG”, with 9630 fluorescence intensity (a.u.).

In the case of “AATTTCTGTTGCACCATGACGTGGAAAGTAAGTGTATGTGCGGAGTCACCTAGTGCAG”, the binding signal was 22200 fluorescence intensity (a.u.). To “TAATTCAATTTGCTGCTGACTATTAGCCCTTGTCTGCAAGCGGAGTCACCTAGTGCAG” belongs 4450 fluorescence intensity (a.u.); to “GTGGGAGGGAGGGCGGCGAGCTGCGCGGCGAACCTCGAGCCGGAGTCACCTAGTGCAG”, 3830 fluorescence intensity (a.u.). Regarding “TCCGGAGGGGTGACGTGGCGCGAGGAGATCGGCGTGGCATCGGAGTCACCTAGTGCAG”, the binding signal was 23500 fluorescence intensity (a.u.). Then “ACTGCAGATTTGCAGAGTAGCAAGCACCACATGACTCACACGGAGTCACCTAGTGCAG”, with 7060 fluorescence intensity (a.u.). Then “AGTTCTAGCAAAATTCTTGTTTGGCATGGCTCCACGTCTGCGGAGTCACCTAGTGCAG”, with 5430 fluorescence intensity (a.u.). Then “TTGTTAGTGGGGTCCTCCGCGTCGCTCTCGCGCGTGCGGCCGGAGTCACCTAGTGCAG”, with 3330 fluorescence intensity (a.u.); and “ACAGACAGCCTTCACGTCGTCTACACGTCGACGCCTCAGCCGGAGTCACCTAGTGCAG”, with 8550 fluorescence intensity (a.u.). Consider “ATTTGCAACATAATGCCACCACCAGAATGGACACATCAACCGGAGTCACCTAGTGCAG”, for which the binding signal was 3160 fluorescence intensity (a.u.). Then “GCCACTGCTTTTAACCATCTCATAATCCCATGTGTACATGCGGAGTCACCTAGTGCAG”, with 3490 fluorescence intensity (a.u.); and “CAGCGAATCCATTGCATTGAGATTTCGATTACCAGTATGACGGAGTCACCTAGTGCAG”, with 19200 fluorescence intensity (a.u.).

“GATGATGCCTTTGTTCGTCGTCGTCGTCGGCGATGGCTGTCGGAGTCACCTAGTGCAG”: the binding signal was 3270 fluorescence intensity (a.u.). To “ACATTCTTGTTGCAAGTAATTTACAGTCATTGACTGTTTACGGAGTCACCTAGTGCAG” belongs 4250 fluorescence intensity (a.u.). To “GACAGTGACCCATCAATCAATGCACAAGCAGCAGTGACGTCGGAGTCACCTAGTGCAG” belongs 3400 fluorescence intensity (a.u.); to “CGTCGATTGGCGCCGCATGGCCCGCGTATGCCACACCTGGCGGAGTCACCTAGTGCAG”, 3700 fluorescence intensity (a.u.).

Turning to “AGACCATTAAGGCCTATCCACGTGGTGCCCCAAGAAGGATCGGAGTCACCTAGTGCAG”, the binding signal was 5410 fluorescence intensity (a.u.).

As for “GTCGGTGGTGAGGTGGCGTGTTGTGTGGCGCAGATGTGAGCGGAGTCACCTAGTGCAG”, the binding signal is 10100 fluorescence intensity (a.u.). To “CGATTTATGTGAACGGCATGCATGCATCATCATCGTCCTACGGAGTCACCTAGTGCAG” belongs 3860 fluorescence intensity (a.u.). To “ATCAAACAAGAGAGCAATAACCATGCGAGGTGATGTGGATCGGAGTCACCTAGTGCAG” belongs 5270 fluorescence intensity (a.u.); to “ATTGATCACTGCAAAGTGGGCCCCACCTGTCAGCTTCCATCGGAGTCACCTAGTGCAG”, 5590 fluorescence intensity (a.u.); to “ATTATACGTGACAATGATATGTGGGGCTTCAATGACACATCGGAGTCACCTAGTGCAG”, 4540 fluorescence intensity (a.u.).

With “GTATTGATGTTCTTACCATAAAAGTAACTCCATGAAAGAACGGAGTCACCTAGTGCAG”, the binding signal is 41100 fluorescence intensity (a.u.). In the case of “TGCCCAGCTTTTCCAAATGCGTGCTCAGATGCAGAAGCTGCGGAGTCACCTAGTGCAG”, the binding signal was 3420 fluorescence intensity (a.u.). To “ATTCAGAGTACTAGCTAGTACGTGTATATAGATCGATATACGGAGTCACCTAGTGCAG” belongs 3360 fluorescence intensity (a.u.); to “CTCCGATGGCCGGAGCGACGCCTCCGCAGCCTTCGGGGTTCGGAGTCACCTAGTGCAG”, 3920 fluorescence intensity (a.u.); to “CAATGCCATTCCGCGGAATGACGTCGTTAAAATGCCACTGCGGAGTCACCTAGTGCAG”, 4640 fluorescence intensity (a.u.). Then “CTTTGCCCGCCAAATGGCACGCCACCGTAATTAACCCCGACGGAGTCACCTAGTGCAG”, with 3190 fluorescence intensity (a.u.); and “GTACGGCACGCTACTATAGTACACGCTCCTACAGCTGACTCGGAGTCACCTAGTGCAG”, with 4090 fluorescence intensity (a.u.). Then “TGCACGATTACATGGTGACCAAGCAAACCAAGGAGTACGTCGGAGTCACCTAGTGCAG”, with 3380 fluorescence intensity (a.u.). For “CAATAGATTGCGTCATCTCTGTTCATTAGCAGTAGTTTTGCGGAGTCACCTAGTGCAG”, the binding signal is 16100 fluorescence intensity (a.u.).
